The assay relates to L1210 leukemia ip in BDF1 mice, survival T/C. Put plainly: NCI In Vivo Anticancer Drug Screen. Data for tumor model L1210 Leukemia (intraperitoneal) in B6D2F1 (BDF1) mice. As to conditions: T/C endpoint: mean survival time, higher T/C = longer survival.
Setting [1] is: dose: 400.0 mg/kg/injection, schedule: Q01DX009 (ip), vehicle: saline.
[2] abbreviates: dose: 800.0 mg/kg/injection, schedule: Q01DX001 (ip), vehicle: saline.
The mark [3] stands for this setting: dose: 400.0 mg/kg/injection, schedule: Q01DX009 (ip), vehicle: saline with Tween-80.
[4] abbreviates: dose: 400.0 mg/kg/injection, schedule: Q01DX009 (ip), vehicle: Klucel (hydroxypropylcellulose) (HPC).
Where [5] appears, read: dose: 400.0 mg/kg/injection, schedule: Q04DX003 (ip), vehicle: saline with Tween-80.
[6] abbreviates: dose: 50.0 mg/kg/injection, schedule: Q01DX001 (ip), vehicle: saline.
Where [7] appears, read: dose: 100.0 mg/kg/injection, schedule: Q01DX001 (ip), vehicle: saline.
Where [8] appears, read: dose: 200.0 mg/kg/injection, schedule: Q01DX001 (ip), vehicle: saline.
Where [9] appears, read: dose: 400.0 mg/kg/injection, schedule: Q01DX001 (ip), vehicle: saline.
Where [10] appears, read: dose: 50.0 mg/kg/injection, schedule: Q01DX001 (ip), vehicle: carboxymethylcellulose (CMC).
The mark [11] stands for this setting: dose: 80.0 mg/kg/injection, schedule: Q01DX001 (ip), vehicle: carboxymethylcellulose (CMC).
Setting [12] is: dose: 100.0 mg/kg/injection, schedule: Q01DX001 (ip), vehicle: carboxymethylcellulose (CMC).
Where [13] appears, read: dose: 200.0 mg/kg/injection, schedule: Q01DX001 (ip), vehicle: carboxymethylcellulose (CMC).
Where [14] appears, read: dose: 400.0 mg/kg/injection, schedule: Q01DX001 (ip), vehicle: carboxymethylcellulose (CMC).
The mark [15] stands for this setting: dose: 400.0 mg/kg/injection, schedule: Q04DX003 (ip), vehicle: saline.

The list does not hold the whole screen: it is rich in T/C values a quarter to a half above the control, in often repeated tests (any T/C) and in doses without a T/C. Other doses and runs of a compound stand elsewhere. T/C gives the treated animals as a percentage of the vehicle group. Some entries give survivors of the animals treated and no T/C: the source files T/C as zero there, which appears to mark a toxic dose or a test without result, not a measured value. Some doses without a T/C left all or most animals alive at the check, yet need not have been tolerated: the source hardly ever lists a survival T/C far under the control, and the zero likely stands for such cases as well. Counts of survivors are from the toxicity check (mostly the fifth day) where no day follows; animals may have died later. Schedule codes are those of the source, taken here to give the interval after Q, in days (D) or hours (H), and the number of doses after X. Some schedules carry Z or #; the key to these is not given. Some structures stand for samples that the source files as different forms (salt, stereo form or complex); doses refer to the form tested. For survival time, this PubChem deposit counts one and a half times the control or more as active, and values a quarter to a half above the control carry no call in these data; other NCI protocols may use other cut-offs. Some T/C values are followed by the survivors on the day toxicity was checked, most often the fifth; without a count, all were alive then.

For `COc1ccccc1CN1CCCN(Cc2ccccc2OC)C1c1ccc(N(CCCl)CCCl)cc1C`, the survivor count runs as follows: under setting [1], 5 of 6; under setting [2], 6 of 6; (dose: 800.0 mg/kg/injection, schedule: Q01DX009 (ip), vehicle: saline) 0 of 6.

Regarding `CC(C)(C)CC(CC(C)(C)C)C(=O)O`, the survivor count (dose: 900.0 mg/kg/injection, schedule: Q01DX Z (ip), vehicle: other) is reported as 0 of 6.

As to `C#CCSC(=S)NNc1ccccc1`, the survivor count under setting [3] is given as 3 of 6.

In the case of `COc1c(NC(=O)c2ccccc2Cl)cccc1[N+](=O)[O-]`, the survivor count (dose: 200.0 mg/kg/injection, schedule: Q01DX009 (ip), vehicle: Klucel (hydroxypropylcellulose) (HPC)) is 6 of 6 and the survivor count under setting [4] is 6 of 6.

In the case of `C=C/C=C1\CCOC1=O`, the T/C (dose: 200.0 mg/kg/injection, schedule: Q04DX002 (ip), vehicle: saline) is 127 % of control.

With `CSc1nc(Cl)cc(Sc2nc(N)nc3nc[nH]c23)n1`, the survivor count (dose: 200.0 mg/kg/injection, schedule: Q01DX Z (ip), vehicle: methylcellulose (MC)) is 5 of 6.

Consider `S=c1[nH]c2ccccc2s1`, for which the survivor count (dose: 400.0 mg/kg/injection, schedule: Q04DX002 (ip), vehicle: saline) is given as 2 of 3 and the survivor count under setting [5] is 0 of 6.

In the case of `O=C(Cl)COc1cc(Cl)c(Cl)cc1Cl`, the survivor count (dose: 400.0 mg/kg/injection, schedule: Q04DX002 (ip), vehicle: gum acacia) is given as 2 of 3.

Take `Cc1cc[n+](Cc2ccccc2Cl)cc1`: the survivor count under setting [6] is 1 of 6, the survivor count under setting [7] is 0 of 6 and the survivor count under setting [8] is 0 of 6.

Turning to `c1ccc(COCC[P+](c2ccccc2)(c2ccccc2)c2ccccc2)cc1`, the survivor count was 4 of 4 (dose: 10.0 mg/kg/injection, schedule: Q01DX001 (ip), vehicle: saline); 0 of 4 (dose: 40.0 mg/kg/injection, schedule: Q01DX001 (ip), vehicle: saline); 0 of 4 under setting [6]; 0 of 4 (dose: 80.0 mg/kg/injection, schedule: Q01DX001 (ip), vehicle: saline); 0 of 4 under setting [7]; 0 of 4 under setting [8]. Besides, the survivor count under setting [9] was 0 of 4.

As for `N/N=C(\N)c1nn(C2OC(CO)C(O)C2O)c2ncnc(N)c12` (stereo not given), the T/C by setting is: (dose: 100.0 mg/kg/injection, schedule: Q01DX005 (ip), vehicle: saline) 125 % of control; (dose: 166.0 mg/kg/injection, schedule: Q01DX005 (ip), vehicle: saline) 131 % of control.

For the compound `CCCCCC1SC1CC1SC1CCCCCCCC(=O)NCCCOCCOCCOCC` (stereo not given), the survivor count under setting [3] was 5 of 6.

For the compound `Clc1nc(Cl)c(CBr)c(Cl)n1`, the survivor count was 0 of 6 (dose: 32.0 mg/kg/injection, schedule: Q01DX009 (ip), vehicle: carboxymethylcellulose (CMC)); 3 of 6 under setting [10]; 0 of 6 (dose: 64.0 mg/kg/injection, schedule: Q01DX009 (ip), vehicle: carboxymethylcellulose (CMC)); 3 of 6 under setting [11]; 0 of 6 under setting [12]; 0 of 6 under setting [13]. In addition, the survivor count under setting [14] is listed as 0 of 6.

As for `O=C(CCCC(=O)N/N=C/c1cccc(Cl)c1)N/N=C\c1cccc(Cl)c1`, the survivor count (dose: 200.0 mg/kg/injection, schedule: Q01DX001 (ip), vehicle: other) was 4 of 4.

For the compound `CCN(CC)CC(=O)NCC(CC)(CCN1CCCCC1)c1cccc2ccccc12` (stereo not given), the survivor count under setting [1] was 0 of 6.

Take `Cc1ccc(Cl)c(C(=O)C(Br)C(Br)c2ccccc2)c1` (stereo not given): the survivor count (dose: 100.0 mg/kg/injection, schedule: Q01DX009 (ip), vehicle: saline with Tween-80) is 3 of 3 and the survivor count (dose: 200.0 mg/kg/injection, schedule: Q01DX009 (ip), vehicle: saline with Tween-80) is given as 1 of 3.

`COC(=O)c1cc(C)c(Br)c(OC)c1`: the survivor count under setting [4] was 0 of 6.

Take `Cn1c(=O)c2c(ncn2C)n(C)c1=O`: the survivor count reads like this: under setting [9], 0 of 6; under setting [3], 0 of 6; under setting [2], 1 of 6; (dose: 1200.0 mg/kg/injection, schedule: Q01DX001 (ip), vehicle: saline) 0 of 6; (dose: 1600.0 mg/kg/injection, schedule: Q01DX001 (ip), vehicle: saline) 0 of 6.

For `COc1ccc(OC)c(C(O)C(C)NC(C)(C)C)c1` (stereo not given), the survivor count by setting is: under setting [8], 1 of 4; under setting [9], 1 of 4.

As for `CSc1cnnc2ccccc12`, the survivor count (dose: 100.0 mg/kg/injection, schedule: Q01DX009 (ip), vehicle: Klucel (hydroxypropylcellulose) (HPC)) is 3 of 6.

For the compound `CCCCC(CC)COc1ccc(N=C(N)N=C(N)N)cc1` (stereo not given), the survivor count is, setting by setting: (dose: 200.0 mg/kg/injection, schedule: Q04DX002 (ip), vehicle: saline with Tween-80) 1 of 3; (dose: 400.0 mg/kg/injection, schedule: Q04DX002 (ip), vehicle: saline with Tween-80) 0 of 3.

In the case of `CCOc1ccc(Nc2ncnc3nc[nH]c23)cc1CN(CCCl)CCCl`, the T/C by setting is: (dose: 2.2 mg/kg/injection, schedule: Q04DX003 (ip), vehicle: saline) 128 % of control; (dose: 2.8 mg/kg/injection, schedule: Q01DX Z (ip), vehicle: carboxymethylcellulose (CMC)) 126 % of control; (dose: 3.13 mg/kg/injection, schedule: Q04DX003 (ip), vehicle: saline) 128 % of control; (dose: 6.25 mg/kg/injection, schedule: Q04DX003 (ip), vehicle: saline) 125 % of control [5 of 6 alive]; (dose: 6.3 mg/kg/injection, schedule: Q01DX Z (ip), vehicle: carboxymethylcellulose (CMC)) 130 % of control [6 of 7 alive]. In addition, the survivor count (dose: 9.5 mg/kg/injection, schedule: Q01DX Z (ip), vehicle: carboxymethylcellulose (CMC)) is 3 of 7; the survivor count (dose: 20.0 mg/kg/injection, schedule: Q01DX Z (ip), vehicle: carboxymethylcellulose (CMC)) is on record as 2 of 6; the survivor count under setting [10] is listed as 2 of 4; the survivor count under setting [11] is listed as 1 of 4; the survivor count under setting [12] is reported as 1 of 4; the survivor count (dose: 100.0 mg/kg/injection, schedule: Q04DX003 (ip), vehicle: saline) was 0 of 6. Further, the survivor count is, setting by setting: under setting [13], 0 of 4; (dose: 200.0 mg/kg/injection, schedule: Q04DX003 (ip), vehicle: saline) 0 of 6; under setting [14], 0 of 4; under setting [15], 1 of 6.

Regarding `Fc1ccc(/C=N\N=C(N/N=C/c2ccc(F)cc2)N/N=C/c2ccc(F)cc2)cc1`, the survivor count runs as follows: (dose: 480.0 mg/kg/injection, schedule: Q01DX Z (oral), vehicle: carboxymethylcellulose (CMC)) 3 of 6; (dose: 2400.0 mg/kg/injection, schedule: Q01DX Z (ip), vehicle: carboxymethylcellulose (CMC)) 0 of 60; (dose: 4800.0 mg/kg/injection, schedule: Q01DX Z (ip), vehicle: carboxymethylcellulose (CMC)) 0 of 60.

Take `O=C1NC(=O)C([N+](=O)[O-])=C(O)C1=O`: under setting [15], the survivor count is 1 of 6.

As for `CC(C)CC(C=NCC(CCN1CCCC1)(CC(C)C)c1cccc2ccccc12)(CCN1CCCC1)c1cccc2ccccc12` (stereo not given), the survivor count is 0 of 6 (dose: 100.0 mg/kg/injection, schedule: Q01DX009 (ip), vehicle: saline); 0 of 6 (dose: 200.0 mg/kg/injection, schedule: Q01DX009 (ip), vehicle: saline); 0 of 6 under setting [1].

Regarding `CC1(C)C2CCC(CC(=O)O)C1C2` (stereo not given), the survivor count under setting [5] is 1 of 3.

Source of the values: PubChem BioAssay AID248 (DTP/NCI, 2004).
